Reference: patent US20170137855A1, “RECOMBINANT CELLS AND METHODS FOR NONPHOSPHORYLATIVE METABOLISM” (REGENTS OF THE UNIVERSITY OF MINNESOTA, priority 2015, published 2017)
At least one structure is not confirmed: it was looked up by name or label, or the drawing left a doubt.

Molecular target: T1, Caulobacter crescentus D-xylonate dehydratase (XylD) (Caulobacter vibrioides, UniProt Q9A9Z2)
T1 construct: His; made in house; host or cells: E. coli BL21
T1 sequence (Q9A9Z2 1-595): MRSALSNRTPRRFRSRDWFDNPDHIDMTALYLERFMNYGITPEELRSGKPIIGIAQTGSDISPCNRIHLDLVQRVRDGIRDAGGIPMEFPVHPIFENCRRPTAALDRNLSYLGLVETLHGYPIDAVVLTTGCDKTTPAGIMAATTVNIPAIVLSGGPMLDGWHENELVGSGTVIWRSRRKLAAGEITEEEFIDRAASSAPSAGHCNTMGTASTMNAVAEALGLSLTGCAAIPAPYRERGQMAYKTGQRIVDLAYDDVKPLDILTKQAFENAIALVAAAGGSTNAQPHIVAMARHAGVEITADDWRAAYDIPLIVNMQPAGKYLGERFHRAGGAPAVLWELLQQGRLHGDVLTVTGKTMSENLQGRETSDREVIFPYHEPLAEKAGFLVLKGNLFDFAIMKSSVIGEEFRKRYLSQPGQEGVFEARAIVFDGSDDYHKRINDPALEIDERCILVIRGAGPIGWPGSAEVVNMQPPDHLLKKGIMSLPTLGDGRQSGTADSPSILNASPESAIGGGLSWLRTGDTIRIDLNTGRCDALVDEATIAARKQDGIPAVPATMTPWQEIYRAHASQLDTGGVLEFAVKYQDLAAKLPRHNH
Test: C. crescentus D-xylonate dehydratase, semicarbazide method
Assay type: biochemical
Details: 100 nM enzyme, 100 mM Tris-HCl, 5 mM MgSO4, pH 7.5
Description: Finally, the 2-ketoacids produced were quantified by detecting their semicarbazone absorbance at 250 nm.

For O=C(O)[C@H](O)[C@@H](O)[C@H](O)CO [D-xylonate], the kcat was 7.6 s⁻¹.
